Reference: US20250339567A1, “COMPOUNDS WITH IMPROVED PHARMACOKINETICS FOR IMAGING AND THERAPY OF CANCER” (priority 2019, published 2025)
For at least one compound, name, drawing or mass did not settle the structure. Starred links: 1 amine or outer side, 2 acyl side, 3 side chain; linkers in the order of their positions; H or OH if unused. Non-standard residues stand in square brackets, D forms with d. Residues, ends and D or L forms follow the SMILES beside them. *: point of attachment. DOTAGA = O=C(O)CN1CCN(CC(=O)O)CCN(C(CCC(=O)*)C(=O)O)CCN(CC(=O)O)CC1; Benzoyl(4-SiFtBu2) = CC(C)(C)[Si](F)(c1ccc(C(=O)*)cc1)C(C)(C)C; d(γGlu) = O=C(O)[C@@H](CCC(=O)[*:2])N[*:1]; Sta = CC(C)C[C@H](N)[C@@H](O)CC(=O)O; X1 = O=C(CN1CCC(N[*:1])CC1)[*:2]; dOrn = NCCC[C@@H](N)C(=O)O; dDap = NC[C@@H](N)C(=O)O; CO = O=C([*:1])[*:2]

The chains behind the UniProt entries cited, without tags or fusion partners. Where a name states a change or a piece, a line headed by the entry shows the natural chain unless it says otherwise.
UniProt P30550: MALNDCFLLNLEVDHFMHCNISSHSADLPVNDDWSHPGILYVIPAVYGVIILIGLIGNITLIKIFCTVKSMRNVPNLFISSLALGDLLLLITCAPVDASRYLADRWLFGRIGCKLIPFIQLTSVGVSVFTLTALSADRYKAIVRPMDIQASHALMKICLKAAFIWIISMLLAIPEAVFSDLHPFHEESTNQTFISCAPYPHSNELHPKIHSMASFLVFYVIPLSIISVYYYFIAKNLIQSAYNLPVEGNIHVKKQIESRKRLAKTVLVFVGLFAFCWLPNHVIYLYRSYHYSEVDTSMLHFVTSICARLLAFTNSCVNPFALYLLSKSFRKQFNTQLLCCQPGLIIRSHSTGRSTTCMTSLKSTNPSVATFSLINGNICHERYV

Biological target: T1, GRPR (Homo sapiens, UniProt P30550)
T1 construct: endogenous in cells; host or cells: PC-3 cells
Assay: Determination of GRPR affinity (IC50), competition with [D-3-[125I]I-Tyr6]MJ9 on PC-3 cells
Type: binding
Conditions: read-out: IC50 [nM], ^natLu-labeled (n = 3), Table 6, [D-3-[125I]I-Tyr6]MJ9 (c = 0.2 nM), 2 h, r.t.
Protocol: The reference ligand for IC50 studies ([D-3-[^125I]I-Tyr^6]MJ9) is prepared according to a previously published procedure. Briefly, 0.2 mg of [D-Tyr^6]MJ9 are dissolved in 20 μL Tracepur water and 280 μL TRIS buffer (25 mm TRIS HCl, 0.4 M NaCl, pH=7.9). After addition of the solution to a vial containing 150 μg Iodo-Gen® (1,3,4,6-Tetrachloro-3α,6α-diphenylglycouril, surface-bound), 5.0 μL (16 MBq) [^125I]Nal(74 TBq/mmol, 3.1 GBq/mL, 40 mM NaOH, Hartmann Analytic, Braunschweig, Germany) are added.
The GRPR-positive PC-3 cells are cultured in Dublecco modified Eagle medium/Nutrition Mixture F-12 with Glutamax-I (1:1) (Invitrigon), supplemented with 10% fetal calf serum and maintained at 37° C. in a humidified 5% CO2 atmosphere.
After removal of the culture medium, the cells are washed once with 500 μL of HBSS (Hank's balanced salt solution, Biochrom, Berlin, Germany, with addition of 1% bovine serum albumin (BSA)) and left in 200 μL HBSS (1% BSA) for 9 min at room temperature for equilibration. Next, 25 μL per well of solutions, containing either HBSS (1% BSA) as control or the respective ligand in increasing concentration (10^−10 M-10^−4 M in HBSS), are added with subsequent addition of 25 μL of [D-3-[^125I]I-Tyr^6]MJ9 (2.0 nM) in HBSS (1% BSA).
All experiments are performed in triplicate for each concentration. After 2 h incubation at room temperature, the experiment is terminated by removal of the medium and consecutive rinsing with 300 μL of HBSS. The media of both steps are combined in one fraction and represent the amount of free radiolabeled reference. Afterwards, the cells are lysed with 300 μL of 1 M NaOH for at least 15 min and united with the 300 μL NaOH of the following washing step. Quantification of bound and free radiolabeled reference is accomplished in a γ-counter.
IC50 determination for each ligand was repeated twice.

Row | Structure (SMILES) | IC50 [nM]
1 | CC(C)C[C@H](NC(=O)C[C@H](O)[C@H](CC(C)C)NC(=O)[C@H](Cc1c[nH]cn1)NC(=O)CNC(=O)[C@@H](NC(=O)[C@H](C)NC(=O)[C@H](Cc1c[nH]c2ccccc12)NC(=O)[C@H](CCC(N)=O)NC(=O)[C@@H](Cc1ccccc1)NC(=O)CN1CCC(NC(=O)[C@@H](CN)NC(=O)[C@@H](CCCN)NC(=O)[C@@H](CC(=O)O)NC(=O)[C@@H](CC(=O)O)NC(=O)[C@@H](CNC(=O)CCC(C(=O)O)N2CCN(CC(=O)O)CCN(CC(=O)O)CCN(CC(=O)O)CC2)NC(=O)[C@@H](CNC(=O)c2ccc([Si](F)(C(C)(C)C)C(C)(C)C)cc2)NC(=O)CC[C@@H](NC(=O)N[C@H](CCC(=O)O)C(=O)O)C(=O)O)CC1)C(C)C)C(N)=O (stereo partly drawn) [GT50] ({dE-CO-d(γGlu)}-[dDap](Benzoyl(4-SiFtBu2))[dDap](DOTAGA)[dD][dD][dOrn][dDap][X1][dF]QWAVGH[Sta]L-NH2) | 9.7 ± 1
2 | CC(C)C[C@H](NC(=O)C[C@H](O)[C@H](CC(C)C)NC(=O)[C@H](Cc1c[nH]cn1)NC(=O)CNC(=O)[C@@H](NC(=O)[C@H](C)NC(=O)[C@H](Cc1c[nH]c2ccccc12)NC(=O)[C@H](CCC(N)=O)NC(=O)[C@@H](Cc1ccccc1)NC(=O)CN1CCC(NC(=O)[C@@H](CN)NC(=O)[C@@H](CC(=O)O)NC(=O)[C@@H](CCCN)NC(=O)[C@@H](CNC(=O)CCC(C(=O)O)N2CCN(CC(=O)O)CCN(CC(=O)O)CCN(CC(=O)O)CC2)NC(=O)[C@@H](CNC(=O)c2ccc([Si](F)(C(C)(C)C)C(C)(C)C)cc2)NC(=O)CC[C@@H](NC(=O)N[C@H](CCC(=O)O)C(=O)O)C(=O)O)CC1)C(C)C)C(N)=O (stereo partly drawn) [GT51] ({dE-CO-d(γGlu)}-[dDap](Benzoyl(4-SiFtBu2))[dDap](DOTAGA)[dOrn][dD][dDap][X1][dF]QWAVGH[Sta]L-NH2) | 14.3 ± 1.5
3 | CC(C)C[C@H](NC(=O)C[C@H](O)[C@H](CC(C)C)NC(=O)[C@H](Cc1c[nH]cn1)NC(=O)CNC(=O)[C@@H](NC(=O)[C@H](C)NC(=O)[C@H](Cc1c[nH]c2ccccc12)NC(=O)[C@H](CCC(N)=O)NC(=O)[C@@H](Cc1ccccc1)NC(=O)CN1CCC(NC(=O)CN2CCC(NC(=O)CN3CCC(NC(=O)[C@@H](CC(=O)O)NC(=O)[C@@H](CNC(=O)CCC(C(=O)O)N4CCN(CC(=O)O)CCN(CC(=O)O)CCN(CC(=O)O)CC4)NC(=O)[C@@H](CNC(=O)c4ccc([Si](F)(C(C)(C)C)C(C)(C)C)cc4)NC(=O)CC[C@@H](NC(=O)N[C@H](CCC(=O)O)C(=O)O)C(=O)O)CC3)CC2)CC1)C(C)C)C(N)=O (stereo partly drawn) [GT52] ({dE-CO-d(γGlu)}-[dDap](Benzoyl(4-SiFtBu2))[dDap](DOTAGA)[dD][X1][X1][X1][dF]QWAVGH[Sta]L-NH2) | 9.7 ± 2.1
4 | CC(C)C[C@H](NC(=O)C[C@H](O)[C@H](CC(C)C)NC(=O)[C@H](Cc1c[nH]cn1)NC(=O)CNC(=O)[C@@H](NC(=O)[C@H](C)NC(=O)[C@H](Cc1c[nH]c2ccccc12)NC(=O)[C@H](CCC(N)=O)NC(=O)[C@@H](Cc1ccccc1)NC(=O)CN1CCC(NC(=O)CN2CCC(NC(=O)[C@@H](CC(=O)O)NC(=O)[C@@H](CNC(=O)CCC(C(=O)O)N3CCN(CC(=O)O)CCN(CC(=O)O)CCN(CC(=O)O)CC3)NC(=O)[C@@H](CNC(=O)c3ccc([Si](F)(C(C)(C)C)C(C)(C)C)cc3)NC(=O)CC[C@@H](NC(=O)N[C@H](CCC(=O)O)C(=O)O)C(=O)O)CC2)CC1)C(C)C)C(N)=O (stereo partly drawn) [GT53] ({dE-CO-d(γGlu)}-[dDap](Benzoyl(4-SiFtBu2))[dDap](DOTAGA)[dD][X1][X1][dF]QWAVGH[Sta]L-NH2) | 19.6 ± 4.6
